# From patent publication US20240052002
# For at least one entry, the source does not settle the construct or the ends of the probe. A negative result means that nothing was seen under these conditions.
# Tested on: SlJUL (Solanum lycopersicum)
# Test: activity in cells
# Settings: indirect: no repression of LUC reporter with G4-disrupted 5'UTR; protein in cells; variant of SlSMXL5 5'UTR
sequence,measurement,value
UUACGGUAUUAACAACGAAAAAAAAUGUAAAAAAAAUAAAAUUGUAUCUAAGUUCCAUG [mSlSMXL5 5'UTR],functional effect,not active
